# From the supplement of paper PMC8728848
# The list shows a part of the results.
# B1: Gal 12 (Homo sapiens), Q96DT0 (protein)
# chain: MSQPSGGRAPGTRIYSWSCPTVMSPGEKLDPIPDSFILQPPVFHPVVPYVTTIFGGLHAGKMVMLQGVVPLDAHRFQVDFQCGCSLCPRPDIAFHFNPRFHTTKPHVICNTLHGGRWQREARWPHLALRRGSSFLILFLFGNEEVKVSVNGQHFLHFRYRLPLSHVDTLGIFGDILVEAVGFLNINPFVEGSREYPAGHPFLLMSPRLEVPCSHALPQGLSPGQVIIVRGLVLQEPKHFTVSLRDQAAHAPVTLRASFADRTLAWISRWGQKKLISAPFLFYPQRFFEVLLLFQEGGLKLALNGQGLGATSMNQQALEQLRELRISGSVQLYCVHS
# Assays:
# Experiment in all cases: glycan array binding signal (z-score within array); higher = stronger binding
# Conditions in all cases: glycan notation: IUPAC condensed, linker removed
# [1] = molecular target: Gal(b1-4)GlcNAc(b1-2)Man(a1-3)[Gal(b1-4)GlcNAc(b1-2)Man(a1-6)]Man(b1-4)GlcNAc(b1-4)[Fuc(a1-6)]GlcNAc
# In short: (§1)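 The Consortium for Functional Glycomics database supplied 3228 glycan arrays, of which those lacking an available protein sequence were dropped. The binding signal, a within-array Z-score, was averaged across arrays of the same protein sequence and across linkers. Negative scores can be read as non-binding.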
# [2] = molecular target: Gal(b1-4)GlcNAc(b1-2)Man(a1-3)[Gal(b1-4)GlcNAc(b1-2)Man(a1-6)][Gal(b1-4)GlcNAc(b1-4)]Man(b1-4)GlcNAc(b1-4)[Fuc(a1-6)]GlcNAc
# In short: as §1
# [3] = molecular target: Gal(b1-4)GlcNAc(b1-2)Man(a1-3)[Gal(b1-4)GlcNAc(b1-2)Man(a1-6)][GlcNAc(b1-4)]Man(b1-4)GlcNAc(b1-4)[Fuc(a1-6)]GlcNAc
# In short: as §1
# [4] = molecular target: Gal(b1-4)GlcNAc(b1-2)Man(a1-3)[Gal(b1-4)GlcNAc(b1-2)][GlcNAc(b1-4)]Man(b1-4)GlcNAc(b1-4)GlcNAc
# In short: as §1
# [5] = molecular target: Gal(b1-4)GlcNAc(b1-2)Man(a1-3)[GlcNAc(b1-2)Man(a1-6)]Man(b1-4)GlcNAc(b1-4)GlcNAc
# In short: as §1
# [6] = molecular target: Gal(b1-4)GlcNAc(b1-2)Man(a1-3)[GlcNAc(b1-4)][Gal(b1-4)GlcNAc(b1-2)Man(a1-6)]Man(b1-4)GlcNAc(b1-4)GlcNAc
# In short: as §1
# [7] = molecular target: Gal(b1-4)GlcNAc(b1-2)Man(a1-3)[Man(a1-6)]Man(b1-4)GlcNAc(b1-4)GlcNAc
# In short: as §1
# [8] = molecular target: Gal(b1-4)GlcNAc(b1-2)Man(a1-6)Man(b1-4)GlcNAc(b1-4)GlcNAc
# In short: as §1
# [9] = molecular target: Gal(b1-4)GlcNAc(b1-2)Man(a1-6)[GlcNAc(b1-2)Man(a1-3)]Man(b1-4)GlcNAc(b1-4)GlcNAc
# In short: as §1
# [10] = molecular target: Gal(b1-4)GlcNAc(b1-2)Man(a1-6)[Man(a1-3)]Man(b1-4)GlcNAc(b1-4)GlcNAc
# In short: as §1
# [11] = molecular target: Gal(b1-4)GlcNAc(b1-2)[Gal(b1-4)GlcNAc(b1-4)]Man(a1-3)[Gal(b1-4)GlcNAc(b1-2)Man(a1-6)]Man(b1-4)GlcNAc(b1-4)GlcNAc
# In short: as §1
# [12] = molecular target: Gal(b1-4)GlcNAc(b1-2)[Gal(b1-4)GlcNAc(b1-4)]Man(a1-3)[Gal(b1-4)GlcNAc(b1-2)[Gal(b1-4)GlcNAc(b1-6)]Man(a1-6)]Man(b1-4)GlcNAc(b1-4)GlcNAc
# In short: as §1
# [13] = molecular target: Gal(b1-4)GlcNAc(b1-2)[Gal(b1-4)GlcNAc(b1-4)]Man(a1-3)[GlcNAc(b1-4)][Gal(b1-4)GlcNAc(b1-2)Man(a1-6)]Man(b1-4)GlcNAc(b1-4)GlcNAc
# In short: as §1
# [14] = molecular target: Gal(b1-4)GlcNAc(b1-2)[Gal(b1-4)GlcNAc(b1-4)]Man(a1-3)[GlcNAc(b1-4)][Gal(b1-4)GlcNAc(b1-2)[Gal(b1-4)GlcNAc(b1-6)]Man(a1-6)]Man(b1-4)GlcNAc(b1-4)GlcNAc
# In short: as §1
# [15] = molecular target: Gal(b1-4)GlcNAc(b1-2)[Gal(b1-4)GlcNAc(b1-6)]Man(a1-6)[Gal(b1-4)GlcNAc(b1-2)Man(a1-3)]Man(b1-4)GlcNAc(b1-4)GlcNAc
# In short: as §1
# [16] = molecular target: Gal(b1-4)GlcNAc(b1-2)[Gal(b1-4)GlcNAc(b1-6)]Man(a1-6)[Gal(b1-4)GlcNAc(b1-2)Man(a1-3)]Man(b1-4)GlcNAc(b1-4)[Fuc(a1-6)]GlcNAc
# In short: as §1
# [17] = molecular target: Gal(b1-4)GlcNAc(b1-2)[Gal(b1-4)GlcNAc(b1-6)]Man(a1-6)[GlcNAc(b1-4)][Gal(b1-4)GlcNAc(b1-2)Man(a1-3)]Man(b1-4)GlcNAc(b1-4)GlcNAc
# In short: as §1
# [18] = molecular target: Gal(b1-4)GlcNAc(b1-2)[Gal(b1-4)GlcNAc(b1-6)]Man(a1-6)[GlcNAc(b1-4)][Gal(b1-4)GlcNAc(b1-2)[Gal(b1-4)GlcNAc(b1-4)]Man(a1-3)]Man(b1-4)GlcNAc(b1-4)[Fuc(a1-6)]GlcNAc
# In short: as §1
binder,measurement,setting,value
B1,glycan array binding signal (z-score),[1],0.053
same,glycan array binding signal (z-score),[2],0.096
same,glycan array binding signal (z-score),[3],-0.028
same,glycan array binding signal (z-score),[4],-0.532
same,glycan array binding signal (z-score),[5],-0.341
same,glycan array binding signal (z-score),[6],-0.72
same,glycan array binding signal (z-score),[7],-0.648
same,glycan array binding signal (z-score),[8],0.391
same,glycan array binding signal (z-score),[9],-0.247
same,glycan array binding signal (z-score),[10],-0.571
same,glycan array binding signal (z-score),[11],0.86
same,glycan array binding signal (z-score),[12],-0.888
same,glycan array binding signal (z-score),[13],-0.457
same,glycan array binding signal (z-score),[14],-0.282
same,glycan array binding signal (z-score),[15],-0.529
same,glycan array binding signal (z-score),[16],1.75
same,glycan array binding signal (z-score),[17],-0.51
same,glycan array binding signal (z-score),[18],-0.581

# A run of entries from the list above, for reference:
binder,measurement,setting,value
B1,glycan array binding signal (z-score),[14],-0.282
same,glycan array binding signal (z-score),[15],-0.529
